The values that follow come from PubChem BioAssay AID2685 (National Center for Advancing Translational Sciences (NCATS), 2010).

The test is described as follows: qHTS Assay for Lipid Storage Modulators in Drosophila S3 Cells.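 On cell number change: cells counted by Cell Tracker Red CMTPX staining in the red channel.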 The settings on record: BODIPY lipid droplet fluorescence, 18-24 h; for cell number change: measured here: cell count max response, cells fed with added oleic acid. Put shortly: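 Laser-scanning cytometry quantifies lipid droplet accumulation (500–530 nm total intensity; droplet/cell object ratio) in oleic acid-fed (400 uM added) Drosophila S3 cells treated with a concentration series. 20 uM Triacsin C defined 100% inhibition.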

Where [1] appears, read: measured here: lipid fluorescence (Fed channel) AC50, cells fed with added oleic acid.
[2] abbreviates: measured here: cell number channel AC50, cells fed with added oleic acid.

Some of the results follow. The main result of the screen is listed elsewhere. These columns were measured beside it and carry no call. The list favours compounds with an active or inconclusive main result. Potencies come from curve fits of mixed quality, noted in brackets.

The term AC50 denotes the midpoint of the concentration-response curve, whichever way the signal moves. A higher AC50 goes with activity only at high concentration. `O=C(CN1CCOCC1)Nc1ccc(Cl)cn1`: the cell number change was -18%. In addition, the AC50 under setting [1] is 29.1 µM [rising, single point]. For the compound `CCOC(=O)N1CCN(CC(=O)Nc2cc3c(cc2C(C)=O)OCO3)CC1`, the AC50 under setting [1] was 6.51 µM [rising, single point].

For the compound `COc1ccc(C(=O)N/N=C(\C)Cn2cnc([N+](=O)[O-])n2)cc1`, the cell number change came out at 13.1%. For the same compound, under setting [1], the AC50 was 16.4 µM [rising, single point].

In the case of `CCOC(=O)c1cc2sc(C)cc2n1CC(=O)NCc1ccc(F)cc1`, the cell number change was -61.5%. The concentration at half-maximal activity (AC50) under setting [2] is 29.1 µM [falling, single point]. With `O=C(O)CN=C(NS(=O)(=O)c1ccc(Cl)cc1)c1ccccc1`, the cell number change was -23.3%. In addition, the concentration at half-maximal activity (AC50) under setting [2] was 1.16 µM [falling, full curve, poor fit]. The AC50 under setting [1] is 18.4 µM [falling, single point].

In the case of `O=C(CN1C(=O)NC2(CCCCCC2)C1=O)Nc1ccc(Br)cc1Br`, the cell number change was 33%. Besides, under setting [2], the AC50 was 3.66 µM [rising, full curve, poor fit]. On to `Cc1cccc2nc(-c3cccc(NC(=O)Cc4ccccc4)c3)cn12`, for which the cell number change was found to be 5.98%. Moreover, the concentration at half-maximal activity (AC50) under setting [2] was 0.146 µM [rising, full curve, poor fit]. The AC50 under setting [1] is 0.146 µM [rising, full curve, poor fit]. On to `CCCCn1c(N)c(N(CCOC)C(=O)c2cccc(-n3cnnn3)c2)c(=O)[nH]c1=O`, for which the cell number change was -9.5%. `O=C(CN1C(=O)CS/C1=C\c1nc(-c2ccc(Cl)cc2)cs1)Nc1cccnc1Cl`: the cell number change was determined as 28.7%. Take `CCCOc1ccc(CCCN=C(N)N)cc1Cl`: the cell number change was -3.51%. On to `COC(=O)c1cc(-c2cccc(OC)c2)c2c(=O)[nH]c(=O)n(C)c2n1`, for which the cell number change came to 22.5%. Consider `CC(C)(C)OC(=O)N1CCN(C(=O)c2[nH]cnc2C(=O)N[C@@H](Cc2ccccc2)C(=O)OCc2ccccc2)CC1`, for which the cell number change is -17.8%. Besides, the AC50 under setting [1] is 0.116 µM [falling, full curve, poor fit]. As for `O=[N+]([O-])c1ccc([N+](=O)[O-])c(Nc2ccc(N3CCOCC3)cc2)c1`, the cell number change is 118%. Consider `Cc1ccc(C)c(N2CCN(c3ccc(N4C(=O)COCC4=O)cc3[N+](=O)[O-])CC2)c1`, for which the cell number change is -19.5%. Further, under setting [2], the half-maximal activity concentration (AC50) was 2.59 µM [falling, single point]. Under setting [1], the AC50 is 1.84 µM [falling, partial curve, poor fit]. Regarding `C=CCn1c(C(CCCC)CC(C)O)n[nH]c1=S` (stereo unspecified), the cell number change was -24.4%. In addition, the concentration at half-maximal activity (AC50) under setting [1] is 5.8 µM [falling, single point]. `O=C(O)c1ccc(S(=O)(=O)c2ccc3c(c2)C(=O)N(c2ccc(Br)cc2)C3=O)cc1`: the cell number change came to 16.7%. As to `CC(C)=CCSc1nnc([C@@H](NC(=O)OC(C)(C)C)C(C)C)o1`, the cell number change was 20.6%. The concentration at half-maximal activity (AC50) under setting [2] was 0.82 µM [falling, single point]. Moreover, the AC50 under setting [1] is 5.8 µM [falling, single point]. Take `COC(=O)COc1ccc(Cl)cc1C1Nc2ccccc2C(=O)N1c1ccc(OC)cc1` (stereo unspecified): the cell number change is 85.7%. The AC50 under setting [1] is 6.51 µM [falling, single point]. In the case of `Cc1cccc(-c2cc3c(N=O)c4ccccc4c-3n[nH]2)c1`, the cell number change was 9.01%. The half-maximal activity concentration (AC50) under setting [1] was 0.259 µM [rising, partial curve, poor fit]. In the case of `COc1ccc(/C=N\NC(=O)c2ccccc2Cl)cc1COc1c(F)c(F)c(F)c(F)c1F`, the cell number change is -32%. Besides, the concentration at half-maximal activity (AC50) under setting [2] is 0.206 µM [falling, full curve, poor fit]. Take `O=C(Nc1ccccc1N1CCOCC1)c1ccncc1`: the cell number change is -20.9%. Besides, the AC50 under setting [2] is 0.731 µM [falling, full curve, poor fit]. In addition, the AC50 under setting [1] is 0.82 µM [falling, single point].

Take `CCNc1ccc(S(=O)(=O)N(C)C)cc1NCC(=O)Nc1ccc(Br)cc1F`: the cell number change is -8.12%. Under setting [1], the AC50 was 29.1 µM [falling, single point].

`Cc1cc(CCN2CCC(=O)NC2=S)ccc1OC(C)C`: the cell number change stood at 19.5%. Further, the AC50 under setting [2] is 1.16 µM [rising, full curve, poor fit]. Turning to `O=C(COc1ccc(Cl)cc1Cl)NCc1ccco1`, the AC50 under setting [2] is 0.0164 µM [falling, full curve, poor fit]. For `CC(=O)NCCSCCNC(C)=O`, the cell number change stood at 0.611%. For the same compound, under setting [1], the half-maximal activity concentration (AC50) is 0.164 µM [falling, full curve, poor fit].

With `CCC(C(=O)N1CCN(S(C)(=O)=O)CC1)c1ccccc1` (stereo unspecified), the cell number change was -180%. Besides, the AC50 under setting [2] is 29.1 µM [falling, single point]. For `COc1ccc(CCN2C(=O)CSC2=Nc2ccc(C(C)C)cc2)cc1OC`, the cell number change is -42.5%. Further, the half-maximal activity concentration (AC50) under setting [2] is 29.1 µM [falling, single point]. `CSC[C@H](NC(=O)COc1cc2c(c3oc(=O)c(C)c(C)c13)CCC(C)(C)O2)C(=O)O`: the cell number change worked out at 19.1%. Moreover, the AC50 under setting [1] was 3.26 µM [rising, full curve].

As for `COC(=O)C1=CNC=C(C(=O)OC)C1c1ccc(Cl)cc1`, the AC50 under setting [2] is 1.03 µM [rising, single point] and the AC50 under setting [1] was 1.3 µM [rising, partial curve]. In the case of `Cc1ccc(S(=O)(=O)N2CCCC2C(=O)NCCc2ccccc2)cc1` (stereo unspecified), the cell number change was determined as 2.03%. In addition, under setting [2], the concentration at half-maximal activity (AC50) is 0.0731 µM [falling, full curve, poor fit]. The half-maximal activity concentration (AC50) under setting [1] is 6.51 µM [falling, single point].

Consider `[O-]/C(=C(\C(=S)Nc1cccc2ccccc12)[n+]1ccccc1)c1ccc(OC(F)F)cc1`, for which the cell number change was found to be 6.52%. Still for that read-out and setting: under `O=[N+]([O-])c1cccc(C2CC(c3ccccc3)=NN2c2ccccc2)c1` (stereo unspecified) stands -47.2%.

As for `CCOC(=O)C(CC)(CC)C(=O)/C=C/c1ccc(OC)cc1`, the cell number change stood at 14.5%. Further, the AC50 under setting [1] was 29.1 µM [rising, single point].

On to `COCCCNC(=O)c1cc(-c2cccnc2)nc2ccc(S(=O)(=O)N3CCCCCC3)cc12`, for which the cell number change amounted to 28%. Further, under setting [2], the AC50 was 0.164 µM [rising, full curve, poor fit]. Also, the AC50 under setting [1] was 0.13 µM [rising, full curve, poor fit]. Regarding `COc1cc(OCC(=O)NC(C)C)cc2c1C(=O)O[C@@H](C)CCCC(=O)CCCCC2`, the cell number change was determined as 1.39%. Besides, under setting [1], the AC50 was 6.51 µM [rising, single point].

`COc1ccc(OC)c(S(=O)(=O)NCCc2csc(-c3cccnc3)n2)c1`: the cell number change is -3.4%. Also, the AC50 under setting [1] was 0.291 µM [rising, full curve, poor fit]. On to `COc1ccc(NC(=O)CN2C(=O)NC(C)(c3ccccc3)C2=O)c(OC)c1` (stereo unspecified), for which the cell number change was -31.6%. For the same compound, the half-maximal activity concentration (AC50) under setting [2] was 5.17 µM [falling, partial curve]. Further, the AC50 under setting [1] was 0.0891 µM [rising, full curve, poor fit]. `Cc1cccc(-c2nnc(-c3cccc(NC(=O)Cc4cccs4)c3)o2)c1`: the cell number change is -13%. On to `CC(=O)N1c2ccc(S(=O)(=O)N3CCC(C(=O)N4CCC(C)CC4)CC3)cc2CC1C` (stereo unspecified), for which the AC50 under setting [2] is 0.731 µM [falling, single point].

With `COc1ccc(NS(=O)(=O)c2ccc(OC)c(NC(=O)CCC3CCCC3)c2)cc1`, the cell number change worked out at 10.6%. Turning to `Cc1cnc(C(=O)OC(C)C(=O)Nc2ccc(Cl)cn2)cn1` (stereo unspecified), the cell number change came to 16.5%. On to `C/C=C(/C(=C/C)c1ccc(O)cc1)c1ccc(O)cc1`, for which the cell number change is -59%. In addition, the AC50 under setting [2] is 29.1 µM [falling, single point]. Under setting [1], the half-maximal activity concentration (AC50) is 29.1 µM [falling, single point]. `CC(C)(CNC(=O)c1ccc(Br)o1)CNC(=O)c1ccc(Br)o1`: the cell number change was -11%. Also, the AC50 under setting [1] is 0.58 µM [falling, single point]. Regarding `O=C(Nc1ccc(N2CCOCC2)cc1)c1ccc(Cl)nc1`, the cell number change was found to be 34.3%. For the same compound, the AC50 under setting [2] is 18.4 µM [rising, single point]. On to `Cc1ccccc1N(C)S(=O)(=O)c1nnc(NC(=O)c2ccco2)s1`, for which the cell number change turned out to be 22.5%. For the same compound, the AC50 under setting [1] was 0.731 µM [falling, full curve]. For `Cc1cccc(NC(=O)CNC(=O)c2cccc(-n3cccc3)c2)c1C`, the AC50 under setting [1] is 6.51 µM [rising, single point]. For the compound `Nc1[nH]n2c(=O)cc(-c3ccccc3)nc2c1N=Nc1ccc2c(c1)OCO2`, the cell number change was -25.6%. The AC50 under setting [1] is 29.1 µM [falling, partial curve, poor fit]. `COc1cc(NC(=S)N2CCCC(C)C2)c(OC)cc1Cl` (stereo unspecified): the cell number change was -9.34%. Moreover, the AC50 under setting [1] is 0.00411 µM [falling, full curve, poor fit]. Take `O=c1c2ccccc2oc2ccc(Oc3ccccc3)cc12`: the cell number change amounted to 11%. For the same compound, the AC50 under setting [1] was 18.4 µM [rising, partial curve]. With `CC1C(=O)N(Cc2cccc(F)c2)c2ccccc2N1C(=O)c1ccccc1` (stereo unspecified), the cell number change was determined as 22%. For the same compound, the AC50 under setting [1] was 29.1 µM [rising, single point]. Turning to `CC(=O)Nc1ccc(S(=O)(=O)N(C)CC(=O)N/N=C/c2ccncc2)cc1`, the cell number change came to 41.3%. For the same compound, the concentration at half-maximal activity (AC50) under setting [2] is 29.1 µM [rising, single point]. For the compound `CCOc1ccc(NC(=O)c2ccco2)cc1`, the cell number change was -148%. Further, the AC50 under setting [2] is 18.4 µM [falling, single point]. Also, the half-maximal activity concentration (AC50) under setting [1] is 29.1 µM [falling, single point].

`COc1ccc(C(C(=O)NC2CCCC2)N(C(=O)c2ccco2)c2cc3c(cc2C(C)=O)OCO3)cc1` (stereo unspecified): the cell number change amounted to 5.42%. Take `CC(=O)N1CCc2[nH]c3ccc(C)cc3c2C1`: the cell number change came to 22.8%. On to `CCOc1ncccc1C(=O)N1CCN(S(=O)(=O)c2ccc3c(c2)OCCO3)CC1`, for which the cell number change stood at 0.675%. Besides, the AC50 under setting [1] was 29.1 µM [falling, single point]. Regarding `CC(C)Oc1ccc(C(=O)/C=C2/C(=O)Nc3ccccc32)cc1`, the cell number change is -50.5%. Moreover, under setting [2], the AC50 was 18.4 µM [falling, single point]. For the same compound, the AC50 under setting [1] was 23.1 µM [falling, single point]. For the compound `O=C(Nc1nnc(SCc2ccc(Cl)cc2)s1)c1cnccn1`, the cell number change is 3.61%. In addition, the AC50 under setting [2] is 0.00651 µM [falling, full curve, poor fit]. Moreover, under setting [1], the concentration at half-maximal activity (AC50) was 0.13 µM [falling, full curve, poor fit]. Regarding `CNc1n[nH]c(=S)s1`, the cell number change was 24.8%. Turning to `COc1ccc(-c2cc(C(=O)Nc3cc(C)ccc3O)no2)cc1`, the cell number change turned out to be 4.17%. Besides, the concentration at half-maximal activity (AC50) under setting [2] was 6.51 µM [rising, single point]. Under setting [1], the half-maximal activity concentration (AC50) was 0.58 µM [rising, single point]. Take `Cc1ccc(C(C#N)c2ccc(Cl)nn2)cc1` (stereo unspecified): the cell number change was -40.9%. Moreover, the AC50 under setting [2] is 20.6 µM [falling, single point]. The half-maximal activity concentration (AC50) under setting [1] was 23.1 µM [falling, single point].
